From patent US8168160B2, “Anti-inflammatory fusion protein” (Eberhard-Karls-Universität Tübingen, priority 2006, dated 2012)
At least one compound was matched to its structure with a doubt left.

Tested on: MMP-9
Test: MMP-9 expression in the supernatant of foam cells
Type: cell-based, human
Conditions: 1 μM (lane 8, FIG. 4)
Experimental: Moreover the method of ROS (“Reactive Oxygen Species”) measurement was used. Typically in the course of an inflammation process monocytes infiltrate the vascular wall, there differentiate into macrophages and produce cytokines, proteases such as the matrix metalloproteinase (MMP) and complement factors, but also free oxidized radicals, i.e. ROS. For the foam cells resulting from the co-incubation of CD34^+ stem cells with thrombocytes in vitro it was detected that they release ROS and also produce matrix metalloproteinase 9 (MMP-9).
The bands correspond to the expression level of MMP-9. In the corresponding lanes the following samples were loaded: 1. control CD34, 2. control CD34, 3. control protein 100 µg/ml, 4. control protein 400 μg/ml, 5. CD68-Fc homodimer 100 µg/ml, 6. CD68-Fc homodimer 200 µg/ml, 7. CD68-Fc homodimer 400 µg/ml, 8. Fluvastatin 1 μM.

With `CC(C)n1c(/C=C/C(O)CC(O)CC(=O)O)c(-c2ccc(F)cc2)c2ccccc21` (stereo not shown) [Fluvastatin, reference compound] the “expression of MMP-9 in the supernatant of foam cells” value was “clear inhibition of the formation of MMP-9”.
